Reference: PubChem BioAssay AID1671190 (National Center for Advancing Translational Sciences (NCATS), 2021)
The whole screen tested about 580,000 compounds, of which about 6,100 (1.1%) were called active. The inconclusive results got no clear call from the source; some entries with a clear call stand among them for comparison. Calls follow the shape of the dose curve; as a rule, active = well fitted inhibition curve with a large enough effect; inconclusive = small, poorly fitted or top-dose-only effect, or another doubt; inactive = no such curve, though single readings can be large or run the other way. Where the call is inconclusive, the potency comes from a doubtful curve fit.

Protein sequences, listed by entry. Tags and fused reporters are not part of them. Lines headed by an entry give the natural chain unless they say otherwise; changes in a name come on top.
UniProt P18054: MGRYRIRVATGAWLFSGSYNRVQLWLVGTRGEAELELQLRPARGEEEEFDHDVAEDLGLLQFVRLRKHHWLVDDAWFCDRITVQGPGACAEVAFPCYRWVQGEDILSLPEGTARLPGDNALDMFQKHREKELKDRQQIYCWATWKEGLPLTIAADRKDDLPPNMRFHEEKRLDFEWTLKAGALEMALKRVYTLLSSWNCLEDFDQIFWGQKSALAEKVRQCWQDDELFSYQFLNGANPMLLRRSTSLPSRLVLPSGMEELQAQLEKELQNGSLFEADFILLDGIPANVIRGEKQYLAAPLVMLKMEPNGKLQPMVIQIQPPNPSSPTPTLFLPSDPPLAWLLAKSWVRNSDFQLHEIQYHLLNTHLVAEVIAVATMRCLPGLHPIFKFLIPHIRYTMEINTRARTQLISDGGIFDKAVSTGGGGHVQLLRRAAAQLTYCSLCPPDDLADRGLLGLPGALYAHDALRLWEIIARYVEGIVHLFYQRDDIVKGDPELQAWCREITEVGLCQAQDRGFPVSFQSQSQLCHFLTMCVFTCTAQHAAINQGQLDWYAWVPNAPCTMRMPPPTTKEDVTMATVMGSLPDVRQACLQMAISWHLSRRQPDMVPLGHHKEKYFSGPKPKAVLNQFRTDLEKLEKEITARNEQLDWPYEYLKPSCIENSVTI

Target: Polyunsaturated fatty acid lipoxygenase ALOX12 (Homo sapiens) (UniProt P18054)
Assay: Primary qHTS assay for inhibitors of human arachidonate 12S-lipoxygenase (ALOX12): Round 2
Conditions: purified 12hLO, xylenol orange hydroperoxide absorbance; activity change, negative = inhibition: at 108 µM (top of the series) unless noted
In short: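 Purified human 12hLO at 150 nM in 25 mM Hepes, 0.01% Triton X-100, pH 7.0, preincubated 15 min at room temperature with compound. Reaction started with 40 uM arachidonic acid, 30 min at room temperature. Hydroperoxide measured by Fe-xylenol orange, 573/405 nm absorbance ratio.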
% is scaled to controls: 0 for no effect and ±100 for the full control effect; potency is read from the fitted curve at half-maximal effect.

| SMILES | Potency | activity change, negative = inhibition |
| --- | --- | --- |
| Cc1ccc(C(=O)NC(=S)NNS(=O)(=O)c2ccccc2)cc1 | inconclusive: 44.7 µM [inhibitor, partial curve, poor fit] |  |
| Cc1ccccc1C(=O)NC(C(N)=O)P(=O)(OC(C)C)OC(C)C (stereo not drawn) | inconclusive: 112 µM [inhibitor, partial curve, poor fit] |  |
| O=C(NCc1ccccc1Cl)c1ccc(CS(=O)(=O)c2ccccc2)o1 | inactive |  |
| COc1ccc(C2CC(c3ccc(Br)cc3)=NN2C(=S)Nc2ccccc2)cc1 (stereo not drawn) | inactive |  |
| CCc1noc(-c2ccn3c(CNC(=O)C4CCCC4)nnc3c2)n1 | inconclusive: 5.62 µM [inhibitor, full curve] |  |
| CN(C)CC[C@H](c1ccc(Cl)cc1)c1ccccn1 | inconclusive: 17.8 µM [inhibitor, partial curve, poor fit] |  |
| CC1=C/C(=N\NC(=S)Nc2cccc(C(F)(F)F)c2)CC1 | inconclusive: 39.8 µM [inhibitor, partial curve, poor fit] |  |
| CC1(C)C(c2cccs2)=[N+]([O-])C2(CCCCC/C2=N\NC(N)=S)N1O (stereo not drawn) | inconclusive: 35.5 µM [inhibitor, partial curve, poor fit] |  |
| CSCCC(NC(=O)c1ccccc1)C(=O)N1CCN(Cc2ccc(Cl)cc2)CC1 (stereo not drawn) | inconclusive: 63.1 µM [inhibitor, partial curve, poor fit] |  |
| COC(=O)C1=C(C(=O)c2ccc(C)cc2)C(c2ccc(C(C)C)cc2)n2nnnc2N1 (stereo not drawn) | inactive |  |
| Cc1ccc2c(Cl)c(Cc3ccccc3)c(=S)[nH]c2n1 | active: 31.6 µM |  |
| CCOCc1nnc(NC(=O)C2CC(=O)N(CCc3c[nH]c4ccc(OC)cc34)C2)s1 (stereo not drawn) | inactive |  |
| COc1ccc(-n2c(=S)[nH]c3c(oc4ccccc43)c2=O)cc1 | inconclusive: 56.2 µM [inhibitor, partial curve, poor fit] |  |
| Cc1cc(C)c(NC(=O)CSc2nccn2-c2cccc(Cl)c2)c(C)c1 | inconclusive: 63.1 µM [inhibitor, partial curve, poor fit] |  |
| CCCCN(C)C(=O)C1CCN(C/C(C)=C/c2ccccc2)CC1 | inconclusive: 0.316 µM [inhibitor, full curve, poor fit] |  |
| Cc1cc(C)cc(NC(=O)CS(=O)(=O)Cc2nc(-c3ccccc3C)oc2C)c1 | inactive |  |
| O=C(c1ccc(F)cc1)N1CCC(n2c(=O)[nH]c3ccccc32)CC1 | inconclusive: 112 µM [inhibitor, single point] |  |
| O=C(O)/C=C/c1ccc(-c2cccc(C(F)(F)F)c2)o1 | inactive |  |
| CC(=O)c1ccc(C(=O)Nc2sc3c(c2C(N)=O)CCN(Cc2ccccc2)C3)cc1 | inconclusive: 89.1 µM [inhibitor, single point] |  |
| O=C(CCN1C(=O)/C(=C/c2cccs2)SC1=S)Nc1ccc(O)cc1 | inactive |  |
| COC(=O)/N=C(/Cc1ccc(OC)cc1)c1ccc(OC)cc1 | inconclusive: 56.2 µM [inhibitor, partial curve, poor fit] |  |
| CCC(=O)N1CCC[C@H](n2c(=O)n(C)c3cccnc32)C1 | inactive |  |

| SMILES | Potency | activity change, negative = inhibition |
| --- | --- | --- |
| O=C(COC(=O)c1cnccn1)c1ccc(-c2ccccc2)cc1 | inconclusive: 25.1 µM [inhibitor, single point] |  |
| CC(C)NC(=O)C(C1CCCC1)N1C(=O)C(=O)c2ccccc21 (stereo not drawn) | inconclusive: 44.7 µM [inhibitor, partial curve] |  |
| CC(C)NCCOCCOc1ccccc1F | inconclusive: 3.55 µM [inhibitor, full curve, poor fit] |  |
| Cc1nn(-c2ccc(C(F)(F)F)cc2)c(C)c1[C@@H]1C=C[C@@H](NC(=O)NC(C)C)C1 | active: 11.2 µM |  |
| CCOC(=O)C1=C(COC(=O)c2ccc([N+](=O)[O-])s2)NC(=O)NC1C (stereo not drawn) | inconclusive: 39.8 µM [inhibitor, partial curve, poor fit] |  |
| O=C(c1cccs1)N1CCC2(CC1)NC(=O)N(Cc1ccc(F)cc1)C2=O | inconclusive: 39.8 µM [inhibitor, single point] |  |
| Cc1cccn2cc(CSc3ncnc4ccccc34)nc12 | inconclusive: 112 µM [inhibitor, single point] |  |
| CCOc1ccc(/C=C2\SC(=O)N(CCNC(=O)C3COc4ccccc4O3)C2=O)cc1OC (stereo not drawn) | inactive |  |
| CCCN(CCC)CCCNC(=O)C1CCN(c2nc3ccc(CC)cc3s2)CC1 | inactive |  |
| O=S(=O)(NCc1ccco1)c1cccs1 | inconclusive: 56.2 µM [inhibitor, partial curve, poor fit] |  |
| COC(=O)CSc1nc2c(c(-c3ccc(C)o3)c1C#N)CCCC2 | inconclusive: 35.5 µM [inhibitor, partial curve] |  |
| CCOc1ccccc1CNC(=O)c1cc2sc(C)c(CN3CCOCC3)c2[nH]1 | inactive |  |
| O=C(/C=C/c1cccc(F)c1)Nc1ccc(Cl)c(C(F)(F)F)c1 | inconclusive: 0.562 µM [inhibitor, full curve, poor fit] |  |
| CCCCOc1ccc(/C=C/C2=CC(C)(C)NC(=S)N2)cc1OCC | inconclusive: 44.7 µM [inhibitor, partial curve, poor fit] |  |
| O=C(NCC1CCN(C(=O)C(=O)c2cc3ccccc3o2)CC1)c1cccnc1 | inactive |  |
| C[C@@H]1CC(=O)NN=C1c1ccc(NN=C(C#N)C#N)cc1 | inconclusive: 7.69 µM [inhibitor, full curve] |  |
| Clc1ccc(C2=CSC3=NCCN23)c(Cl)c1 | inconclusive: 100 µM [inhibitor, partial curve, poor fit] |  |
| Cc1cc(CS(=O)(=O)CC(=O)NC2CC2)on1 |  | inconclusive: -33.2% [inhibitor] |
| COC(=O)C1=C(C)NC(=S)NC1c1ccc(OCC(=O)N2CC(C)OC(C)C2)c(OC)c1 (stereo not drawn) | inconclusive: 50.1 µM [inhibitor, partial curve, poor fit] |  |
| O/N=C\c1ccc2noc(-c3ccc(Cl)cc3)c2c1 | inconclusive: 56.2 µM [inhibitor, partial curve, poor fit] |  |
| Cc1cc(C#N)c(SCC(N)=O)nc1-c1ccc(F)cc1 | inconclusive: 39.8 µM [inhibitor, partial curve, poor fit] |  |

Copied from the results shown for reference:

| SMILES | Potency | activity change, negative = inhibition |
| --- | --- | --- |
| CC(=O)c1ccc(C(=O)Nc2sc3c(c2C(N)=O)CCN(Cc2ccccc2)C3)cc1 | inconclusive: 89.1 µM [inhibitor, single point] |  |
| O=C(CCN1C(=O)/C(=C/c2cccs2)SC1=S)Nc1ccc(O)cc1 | inactive |  |
| COC(=O)/N=C(/Cc1ccc(OC)cc1)c1ccc(OC)cc1 | inconclusive: 56.2 µM [inhibitor, partial curve, poor fit] |  |
| CCC(=O)N1CCC[C@H](n2c(=O)n(C)c3cccnc32)C1 | inactive |  |
| O=C(COC(=O)c1cnccn1)c1ccc(-c2ccccc2)cc1 | inconclusive: 25.1 µM [inhibitor, single point] |  |
| CC(C)NC(=O)C(C1CCCC1)N1C(=O)C(=O)c2ccccc21 (stereo not drawn) | inconclusive: 44.7 µM [inhibitor, partial curve] |  |
| CC(C)NCCOCCOc1ccccc1F | inconclusive: 3.55 µM [inhibitor, full curve, poor fit] |  |
| Cc1nn(-c2ccc(C(F)(F)F)cc2)c(C)c1[C@@H]1C=C[C@@H](NC(=O)NC(C)C)C1 | active: 11.2 µM |  |
| CCOC(=O)C1=C(COC(=O)c2ccc([N+](=O)[O-])s2)NC(=O)NC1C (stereo not drawn) | inconclusive: 39.8 µM [inhibitor, partial curve, poor fit] |  |
| O=C(c1cccs1)N1CCC2(CC1)NC(=O)N(Cc1ccc(F)cc1)C2=O | inconclusive: 39.8 µM [inhibitor, single point] |  |
